Legend:
[1] = test system: cBMAL1-cCLOCK heterodimer (Gallus gallus); assay: activity in cells; settings: protein in cells, protein details: expressed in 293EBNA cells, only the site is given
[2] = test system: cBMAL2-cCLOCK heterodimer (Gallus gallus); assay: activity in cells; settings: protein in cells, protein details: expressed in 293EBNA cells, only the site is given
[3] = luciferase transactivation in 293EBNA cells

Chains of the proteins cited; added tags and fusions are not shown. Chains listed by the source or under a name are the forms on record and can include a tag or linker.
cBMAL2-cCLOCK heterodimer (Gallus gallus), one chain, as listed by the source, chain 1 of 2: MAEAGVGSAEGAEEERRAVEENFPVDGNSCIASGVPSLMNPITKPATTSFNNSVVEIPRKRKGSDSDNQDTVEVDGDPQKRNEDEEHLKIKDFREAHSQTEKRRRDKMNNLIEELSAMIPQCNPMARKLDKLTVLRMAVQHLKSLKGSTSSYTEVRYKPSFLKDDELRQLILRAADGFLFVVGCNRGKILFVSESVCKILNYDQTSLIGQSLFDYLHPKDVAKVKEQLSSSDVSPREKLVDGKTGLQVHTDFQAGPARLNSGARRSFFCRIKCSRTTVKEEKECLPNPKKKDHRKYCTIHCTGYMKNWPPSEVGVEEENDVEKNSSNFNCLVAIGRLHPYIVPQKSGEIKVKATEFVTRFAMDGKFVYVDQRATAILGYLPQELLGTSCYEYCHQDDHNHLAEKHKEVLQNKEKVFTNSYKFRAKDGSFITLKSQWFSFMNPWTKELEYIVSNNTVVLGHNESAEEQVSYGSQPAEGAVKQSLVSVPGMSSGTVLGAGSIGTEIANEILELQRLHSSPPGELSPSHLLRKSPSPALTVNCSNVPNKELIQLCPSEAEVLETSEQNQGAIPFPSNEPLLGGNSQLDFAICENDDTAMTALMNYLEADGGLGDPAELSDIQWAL
cBMAL1-cCLOCK heterodimer (Gallus gallus), one chain, as listed by the source, chain 2 of 2: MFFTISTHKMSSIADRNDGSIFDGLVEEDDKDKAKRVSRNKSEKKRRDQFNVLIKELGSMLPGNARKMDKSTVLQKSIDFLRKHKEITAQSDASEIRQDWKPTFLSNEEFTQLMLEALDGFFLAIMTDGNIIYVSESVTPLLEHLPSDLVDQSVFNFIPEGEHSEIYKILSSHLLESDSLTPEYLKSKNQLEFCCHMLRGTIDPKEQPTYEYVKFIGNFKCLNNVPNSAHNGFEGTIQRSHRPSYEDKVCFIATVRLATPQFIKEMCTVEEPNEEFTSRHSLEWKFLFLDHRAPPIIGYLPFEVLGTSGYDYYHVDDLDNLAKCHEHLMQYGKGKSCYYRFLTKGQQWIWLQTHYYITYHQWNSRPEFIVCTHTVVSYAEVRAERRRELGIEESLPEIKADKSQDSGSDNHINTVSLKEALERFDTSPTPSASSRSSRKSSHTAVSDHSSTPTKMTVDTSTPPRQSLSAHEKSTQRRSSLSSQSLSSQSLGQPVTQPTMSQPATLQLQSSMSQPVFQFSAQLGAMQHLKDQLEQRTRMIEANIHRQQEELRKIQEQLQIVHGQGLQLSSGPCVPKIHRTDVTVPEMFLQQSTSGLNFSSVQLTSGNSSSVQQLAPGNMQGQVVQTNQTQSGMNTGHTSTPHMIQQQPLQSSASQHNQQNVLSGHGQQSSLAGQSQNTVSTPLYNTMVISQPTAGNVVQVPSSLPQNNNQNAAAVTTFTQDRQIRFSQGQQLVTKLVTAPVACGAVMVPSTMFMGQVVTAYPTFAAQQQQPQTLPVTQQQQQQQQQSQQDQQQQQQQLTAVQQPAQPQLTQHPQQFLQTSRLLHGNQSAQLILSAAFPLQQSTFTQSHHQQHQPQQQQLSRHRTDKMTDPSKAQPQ
cBMAL1-cCLOCK heterodimer (Gallus gallus), one chain, as listed by the source, chain 1 of 2: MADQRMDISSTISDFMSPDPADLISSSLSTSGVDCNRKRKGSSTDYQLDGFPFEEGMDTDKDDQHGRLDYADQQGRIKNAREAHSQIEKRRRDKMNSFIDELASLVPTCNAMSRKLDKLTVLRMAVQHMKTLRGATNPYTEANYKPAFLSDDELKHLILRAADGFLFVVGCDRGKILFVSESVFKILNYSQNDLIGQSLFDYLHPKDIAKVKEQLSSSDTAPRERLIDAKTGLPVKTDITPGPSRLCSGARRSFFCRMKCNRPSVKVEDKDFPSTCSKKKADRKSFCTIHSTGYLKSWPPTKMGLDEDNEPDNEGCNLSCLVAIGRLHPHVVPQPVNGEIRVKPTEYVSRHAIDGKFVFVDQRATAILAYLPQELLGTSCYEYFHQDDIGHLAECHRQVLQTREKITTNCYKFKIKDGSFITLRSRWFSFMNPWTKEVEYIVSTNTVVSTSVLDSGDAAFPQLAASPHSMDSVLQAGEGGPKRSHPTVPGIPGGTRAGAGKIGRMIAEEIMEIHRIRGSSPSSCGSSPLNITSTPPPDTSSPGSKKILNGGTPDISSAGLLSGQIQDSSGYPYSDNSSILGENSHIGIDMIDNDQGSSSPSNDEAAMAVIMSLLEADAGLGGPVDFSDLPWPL

Sequence	activity on this sequence [1, 3]	activity on this sequence [2, 3]	activity on this sequence ([1]; transactivation enhanced by 10 ng cBmal2 plasmid)	activity on this sequence ([2]; transactivation suppressed at high cBmal2 dose)
GTGTCACACGTGAGGCTTAGTGTCACACGTGAGGCTTAGTGTCACACGTGAGGCTTA (double strand) [cPer2 E-box-luc (3 tandem copies)]	active	active		
TCAGGCCCACGTGTCCCA (double strand) [mouse vasopressin E-box-luc]			active	active

Source: US20040058366, “Novel clock gene bmal2” (published 2004)
